Data on one substance can be found in publication PMC6245143 (Biophysics Reports, 2018).

The data set is described as follows: peptide synthesis. The conditions noted are these: conjugation step.

Regarding HYNIC–cHK, the conjugation yield is listed as 56%. For the setting “HPLC”, the “final HPLC purity” value is recorded as greater than 95%.
